Laboratory results: US4189499A, “Lysine 4-allyloxy-3-chlorophenylacetate and method of its preparation” (priority 1979, dated 1980)

Test: Extent of availability after different routes, intravenous administration as reference
Format: in vivo, rabbit
Settings: comparison of lysine salt with acid
Description: The following pharmacological experimentation was carried out in order to estimate the comparative absorption and bioavailability through various administration routes in rabbits of Alclofenac acid and its lysine salt.

C=CCOc1ccc(CC(=O)O)cc1Cl [Alclofenac-Lysine, lysine 4-allyloxy-3-chlorophenylacetate]
F Lys. vs acid (AUC o → 4h) (P.O. 90 mg/kg, 0-4 h): < 0.01 | F Lys. vs acid (AUC o → 2h) (Rectal 100 mg/kg, 0-2 h): ns
